Source: the supplement of paper PMC12889115
This is one part of the list. These are raw signals, not scaled to a control.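 In the initial screen, polymyxin B was used at a concentration that permeabilizes Salmonella's outer membrane but not its inner membrane. Maximum growth was set by DMSO wells with or without polymyxin B. Since plates varied, data were ranked per plate, and compounds giving the lowest OD600 advanced as hits.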

Test system: Salmonella enterica serovar Typhimurium SL1344
Experiment: bacterial growth OD600 after 18 h with compound and polymyxin B; higher = more bacterial growth (less inhibition)
Conditions: 50 µM, Mueller-Hinton broth

Compound | bacterial growth OD600 (polymyxin B 1 µg/mL) | bacterial growth OD600 (polymyxin B 0.75 µg/mL)
CCC(O)CNC(=O)C1CCN(c2nc(-c3ccccc3)nc3c2CCC3)CC1 (stereo unspecified) | 0.94 | –
C=CCOc1ccccc1CNC1COc2c(cccc2OC)C1 (stereo unspecified) | – | 0.725
CC(=O)NCC(=O)N1CCCC(C(=O)c2ccc3c4c(cccc24)CC3)C1 (stereo unspecified) | 0.798 | –
COc1cccc(-c2ccc(NC(=O)C3CCCN(Cc4cccnc4)C3)cc2)c1 (stereo unspecified) | 0.895 | –
CC(C)=CC(=O)NCCN1Cc2ccccc2OC(c2ccccc2F)C1 (stereo unspecified) | – | 0.044
CC(Cn1cncn1)NCc1cn(C)nc1-c1ccc(C2CCCCC2)cc1 (stereo unspecified) | 0.011 | –
c1coc(CN2CCC(NC3CCCN(c4nc5ccccc5s4)C3)CC2)c1 (stereo unspecified) | 1.1 | –
Cc1c(C(=O)N(C)C(C)C)sc2ncnc(NC[C@H]3C[C@@H]4C=C[C@H]3C4)c12 | – | 0.011
Cc1ccccc1N1CCN(c2ncccc2CNC(=O)C2CCCCO2)CC1 (stereo unspecified) | 0.082 | –
COc1ccccc1CN(C)C(=O)c1cc(COc2cccc(F)c2)[nH]n1 | 0.742 | –
O=C1CCC(C(=O)N2CCCCCCC2)CN1CCN1CCOCC1 (stereo unspecified) | 1.26 | –
COc1cc(NC(=O)CCC2CCCN(C(=O)c3c[nH]nc3C)C2)cc(OC)c1 (stereo unspecified) | 0.932 | –
COc1cc(=O)n2c(c1C(=O)NCc1ccc3c(c1)OCO3)CCN(C(=O)CCC1CCCC1)CC2 | – | 0.82
Cc1ccccc1C(=O)N1CCCC(N2CCN(c3ccccc3C)CC2)C1 (stereo unspecified) | 0.865 | –
COc1ccc(O)c(CN2CCCC(CCC(=O)NCc3ccc(OC)cc3OC)C2)c1 (stereo unspecified) | – | 0.781
COCC1CCN(C(=O)C2CCC(=O)N(Cc3cccc(C(F)(F)F)c3)C2)CC1 (stereo unspecified) | 0.982 | –

Some of these compounds in order of molecular weight, low to high.
Compound | bacterial growth OD600 (polymyxin B 1 µg/mL) | bacterial growth OD600 (polymyxin B 0.75 µg/mL)
O=C1CCC(C(=O)N2CCCCCCC2)CN1CCN1CCOCC1 (stereo unspecified) | 1.26 | –
COc1ccccc1CN(C)C(=O)c1cc(COc2cccc(F)c2)[nH]n1 | 0.742 | –
Cc1ccccc1N1CCN(c2ncccc2CNC(=O)C2CCCCO2)CC1 (stereo unspecified) | 0.082 | –

Continuation:

Compound | bacterial growth OD600 (polymyxin B 1 µg/mL) | bacterial growth OD600 (polymyxin B 0.75 µg/mL)
COc1cccc(-c2cnnc(N(C)Cc3nc(C)c[nH]3)n2)c1 | – | 0.844
COCCc1noc(-c2ccc(N[C@H]3CCCCNC3=O)nc2)n1 | 1.04 | –
Cc1cc(C)c(C(=O)N2CCCC(Nc3ccc(F)c(F)c3)C2)o1 (stereo unspecified) | 0.678 | –
COCC(=O)Nc1cnn(-c2cccc(C(=O)N3CCC(c4ccccc4F)C3)c2)c1 (stereo unspecified) | – | 0.699
COc1ccc(CNC(=O)CCC2(Cc3ccc(F)c(OC)c3)CCC(=O)N2)c(OC)c1 (stereo unspecified) | – | 0.814
CC(C)CN(C)CC1(O)CCCN(CC(C)(C)C)C1=O (stereo unspecified) | – | 0.807
COCCN1CCCC2(CCN(Cc3cccc(O)c3)C2)C1=O (stereo unspecified) | – | 0.826
O=C(c1csc2nc(-c3cccc(C(F)(F)F)c3)cn12)N1CCCC1 | 1.19 | –
COc1ccc(/C=C/C(=O)N(Cc2ccncc2)Cc2cccc(OCCc3ccc(F)cc3)c2)cc1 | – | -0.001
COc1ccc(F)c(CC2(CCC(=O)N3CCCN(c4ncccn4)CC3)CCC(=O)N2)c1 (stereo unspecified) | – | 0.81
COc1ccccc1N1C[C@@H]2C[C@@H](c3ccco3)N3CCC[C@@]23C1=O | – | 0.798
CN(CCCCN1CCOCC1)c1nc2nonc2nc1N1CCCC1 | – | 0.834
CCOC(=O)C1(CCCc2ccccc2)CCN(C(=O)Cc2cnc3ncnn3c2)CC1 | 0.955 | –
CS(=O)(=O)N1CCC(C2CCN(Cc3cccc(F)c3F)CC2)C1 (stereo unspecified) | – | 0.826
CC(C)S(=O)(=O)c1ncc(CN(C)Cc2cnn(C)c2)n1Cc1ccccc1F | 0.96 | –
